The test system of this test is primary human hepatic stellate cells (donor 1). Kind of test: percent Bodipy-positive cells; higher = more lipid droplet accumulation. As to conditions: 48 h.
Setting [1] is: library stock concentration: 80 uM.
[2] abbreviates: library stock concentration: 3.33 mM.
[3] abbreviates: library stock concentration: 10 mM.
[4] abbreviates: library stock concentration: 1 mM.

We go through 42 compounds from the supplement of paper PMC9135407.

“And” between values parts separate entries of the source, which are not always exact repeats. Equal entries are not always repeated. Structures can show the parent of a compound that is named as a salt. ± gives the standard deviation of the averaged measurements. This is one part of the list. Plates or batches differ in their baseline, so values are only roughly comparable.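 Culture-activated primary human stellate myofibroblasts, where regained lipid droplets signal inactivation. Value: share of Hoechst-counted cells above a per-plate Bodipy cutoff, in duplicate wells, with DMSO negative and nortriptyline positive controls on each plate. Hits: a control-normalized score above the plate's top-tenth-percentile nortriptyline wells, or one of a plate's three best wells. Final well concentrations are not given.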

As for `CC[C@@H]1C(=O)N(C)c2cnc(Nc3ccc(C(=O)N[C@H]4CC[C@H](N5CCN(CC6CC6)CC5)CC4)cc3OC)nc2N1C(C)C` [Volasertib], the “percent Bodipy-positive cells” value runs as follows: under setting [1], 15.3 ± 0.69%; (library stock concentration: 400 uM) 27.1 ± 0.44%; (library stock concentration: 2 mM) 35.9 ± 1.2%.

For `COC(=O)N[C@@H](C)CNc1nccc(-c2cn(C(C)C)nc2-c2cc(Cl)cc(NS(C)(=O)=O)c2F)n1`, the “percent Bodipy-positive cells” value came to 34.7 ± 16% under setting [2] and 79.6 ± 7.1% under setting [3].

In the case of `CS(=O)(=O)O.N=C(NC(=O)c1nc(Cl)c(N)nc1N)Nc1ccccc1` [Phenamil methanesulfonate], the “percent Bodipy-positive cells” value under setting [3] worked out at 99.5 ± 0.28%.

Take `CCC1(O)CC2CN(CCc3c([nH]c4ccccc34)[C@@](C(=O)OC)(c3cc4c(cc3OC)N(C=O)C3[C@]45CCN4CC=C[C@@](CC)([C@@H](OC(C)=O)[C@]3(O)C(=O)OC)[C@H]45)C2)C1.O=S(=O)(O)O` (stereo not given in full) [Vincristine sulfate]: under setting [3], the “percent Bodipy-positive cells” value is 90.8 ± 1.8%.

With `Cl.N/C(=N\C(=O)c1nc(Cl)c(N)nc1N)NCc1ccc(Cl)cc1Cl`, the “percent Bodipy-positive cells” value (library stock concentration: 11.8 mM) is 96.8 ± 1.1%.

Consider `COc1ccc(Cl)cc1C(=O)NCCc1ccc(S(=O)(=O)NC(=O)NC2CCCCC2)cc1` [Glyburide], for which the “percent Bodipy-positive cells” value is 7.24 ± 5.6% under setting [2]; 6.55% and 11.7% (library stock concentration: 4 mM).

As for `COc1ccc(Cl)cc1C(=O)NCCc1ccc(S(=O)(=O)NC(=O)NC2CCCCC2)cc1` [Glybenclamide], the “percent Bodipy-positive cells” value under setting [3] stood at 50.7 ± 18%.

Turning to `COc1ccc(Cl)cc1C(=O)NCCc1ccc(S(=O)(=O)NC(=O)NC2CCCCC2)cc1` [Glibenclamide], the “percent Bodipy-positive cells” value turned out to be 22.3 ± 9.6%. In addition, under setting [3], the “percent Bodipy-positive cells” value is 6.82 ± 0.56%.

As to `Cl.O=S(=O)(c1cccc2c(Cl)cccc12)N1CCCNCC1`, the “percent Bodipy-positive cells” value under setting [3] was determined as 94.3 ± 4.4%.

Consider `Nc1nc(=O)n([C@@H]2CS[C@H](CO)O2)cc1F` [Emtricitabine], for which the “percent Bodipy-positive cells” value was 6.46 ± 1.5% under setting [2], 8.38 ± 0.61% (library stock concentration: 8.1 mM) and 12.2 ± 5.3% under setting [3].

Consider `CCN(CC)CC#CCOC(=O)C(O)(c1ccccc1)C1CCCCC1.Cl` (stereo not given) [Oxybutynin Chloride], for which, under setting [3], the “percent Bodipy-positive cells” value was 89.8 ± 2.4%.

On to `COc1cc2ncnc(Nc3cccc(Cl)c3)c2cc1OC` [AG-1478 (Tyrphostin AG-1478)], for which the “percent Bodipy-positive cells” value under setting [3] came out at 80.2 ± 6.3%.

For `CC(C)=CCC1=C(O)C(=O)c2ccccc2C1=O` [Lapachol], the “percent Bodipy-positive cells” value under setting [3] was determined as 43.1 ± 27%.

On to `CCCOc1ccccc1-c1nc2[nH]nnc2c(=O)[nH]1` [Zaprinast], for which the “percent Bodipy-positive cells” value is 24.3 ± 3.3%. Besides, under setting [3], the “percent Bodipy-positive cells” value is 14.8% and 14.3% and 7.7%. Moreover, the “percent Bodipy-positive cells” value (library stock concentration: 18.4 mM) is 13.5 ± 0.4%.

Consider `CCCCCCNC(=O)n1cc(F)c(=O)[nH]c1=O` [Carmofur], for which the “percent Bodipy-positive cells” value under setting [2] came out at 9.82 ± 2.8%.

As to `COc1cccc2c1C(=O)c1c(O)c3c(c(O)c1C2=O)C[C@@](O)(C(=O)CO)C[C@@H]3O[C@H]1C[C@H](N)[C@H](O[C@@H]2CCCCO2)[C@H](C)O1` [Pirarubicin], the “percent Bodipy-positive cells” value by setting is: under setting [2], 100%; under setting [3], 100%.

Take `O=C1NC(=O)C(c2cnc3ccccn23)=C1c1cn2c3c(cc(F)cc13)CN(C(=O)N1CCCCC1)CC2`: the “percent Bodipy-positive cells” value is 63.9 ± 3% under setting [1] and 59.8 ± 3.3% under setting [3].

For the compound `O=C(O)CCC/C=C/C[C@@H]1[C@@H](CC[C@@H](O)CCc2ccccc2)[C@H](O)C[C@@H]1O` [5-trans Latanoprost (free acid)], the “percent Bodipy-positive cells” value under setting [4] came to 10.8 ± 2.4%.

As to `COC(=O)C1=CO[C@@H](O)[C@@H]2C(CO)=CC[C@H]12` [Genipin], the “percent Bodipy-positive cells” value under setting [2] stood at 8.24 ± 0.74%.

As to `Cc1nc(C(=O)NCC(=O)O)c(O)c2ccc(Oc3ccccc3)cc12`, the “percent Bodipy-positive cells” value reads like this: under setting [2], 6.51 ± 0.6%; under setting [3], 21 ± 10%.

As to `C=C1C(=O)OC2CC1C(OC(C)=O)C/C(C)=C/CC/C(C)=C/CC[C@]2(C)O` (stereo not given in full) [Crassin acetate], the “percent Bodipy-positive cells” value under setting [3] worked out at 86.2 ± 2%.

For the compound `COc1cc(COc2cc(N)c(Cl)cc2C(=O)CCC2CCN(CCNS(C)(=O)=O)CC2)cc(OC)c1.Cl`, the “percent Bodipy-positive cells” value under setting [3] was determined as 99.2 ± 1.1%.

In the case of `CCCCCCCCCCCCCCC[C@@H](O)[C@H](CO)NC(=O)CCCCCCC` [C8 Dihydroceramide], the “percent Bodipy-positive cells” value under setting [4] was 12.7 ± 7.1%.

Take `CN1CCN(c2nc3cc(C(F)(F)F)ccc3n3cccc23)CC1.O=C(O)/C=C\C(=O)O`: under setting [3], the “percent Bodipy-positive cells” value is 84.53 ± 0.51%.

As for `CN(C(=O)CN(CCO)CC(=O)N(C)C(C)(C)Cc1ccccc1)C(C)(C)Cc1ccccc1` [Oxethazaine], the “percent Bodipy-positive cells” value stood at 42.9 ± 8%. Also, the “percent Bodipy-positive cells” value under setting [3] is 35 ± 5.5%.

`COC(=O)N/N=C/c1c[n+]([O-])c2ccccc2[n+]1[O-]` [Carbadox]: the “percent Bodipy-positive cells” value (library stock concentration: 7.6 mM) is 11.7% and 8.92%; the “percent Bodipy-positive cells” value under setting [3] came to 44.3 ± 5.8%.

Regarding `CC(C)(Oc1ccc(Cl)cc1)C(=O)OCCOC(=O)c1cccnc1` [Etofibrate], the “percent Bodipy-positive cells” value runs as follows: under setting [2], 13.5 ± 2.5%; under setting [3], 37.6 ± 13%.

In the case of `CC1(C)O[C@@H]2C[C@H]3[C@@H]4C[C@H](F)C5=CC(=O)C=C[C@]5(C)[C@@]4(F)[C@@H](O)C[C@]3(C)[C@]2(C(=O)CO)O1` [Fluocinolone acetonide], the “percent Bodipy-positive cells” value (library stock concentration: 4.4 mM) was 6.72% and 3.96%.

As for `CC1(C)O[C@@H]2C[C@H]3[C@@H]4C[C@H](F)C5=CC(=O)C=C[C@]5(C)[C@@]4(F)[C@@H](O)C[C@]3(C)[C@]2(C(=O)CO)O1` [Fluocinolone Acetonide], the “percent Bodipy-positive cells” value is, setting by setting: under setting [2], 6.16 ± 2.8%; under setting [3], 15.2 ± 0.22%.

As for `COc1cc(NS(=O)(=O)c2ccc(N)cc2)ncn1` [Sulfamonomethoxine], the “percent Bodipy-positive cells” value is 9.26 ± 2.7%. Moreover, the “percent Bodipy-positive cells” value (library stock concentration: 7.1 mM) stood at 21.6 ± 3.6%. In addition, the “percent Bodipy-positive cells” value under setting [3] came to 27.6 ± 14%.

As for `CC(C)=CCc1c2c(c3occ(-c4ccc(O)c(O)c4)c(=O)c3c1O)C=CC(C)(C)O2` [Pomiferin], the “percent Bodipy-positive cells” value under setting [3] was 68.7 ± 8%.

Take `CCN(c1ccccc1)c1cc(=NC)n(C)c(C)n1`: under setting [3], the “percent Bodipy-positive cells” value worked out at 5.89 ± 2.3%.

Turning to `CCCCCCCC/C=C\CCCCCCCC(=O)O.NCCO`, the “percent Bodipy-positive cells” value under setting [3] amounted to 34.8 ± 5%.

For the compound `Cc1cc(C)nc(NS(=O)(=O)c2ccc(N)cc2)n1` [Sulfamethazine sodium salt], the “percent Bodipy-positive cells” value worked out at 8.61 ± 2.3%.

For `Cc1cc(C)nc(NS(=O)(=O)c2ccc(N)cc2)n1` [Sulfamethazine], the “percent Bodipy-positive cells” value was 8.37 ± 6.2% under setting [2]; 11.4 ± 0.74% (library stock concentration: 7.2 mM); 27.3% and 19.7% under setting [3].

Regarding `CC(C)[C@H](N)C(=O)OCCOCn1cnc2c(=O)nc(N)[nH]c21` [Valaciclovir], the “percent Bodipy-positive cells” value (library stock concentration: 6.2 mM) is 6.59 ± 1.9%.

For `CC(C)[C@H](N)C(=O)OCCOCn1cnc2c(=O)nc(N)[nH]c21` [Valacyclovir hydrochloride], the “percent Bodipy-positive cells” value under setting [3] was 37.4 ± 10%.

Turning to `CC(C)[C@H](N)C(=O)OCCOCn1cnc2c(=O)nc(N)[nH]c21` [Valaciclovir HCl], the “percent Bodipy-positive cells” value by setting is: under setting [2], 11.1 ± 2.6%; under setting [3], 11.8 ± 7.1%.

Regarding `CC(C)[C@H](N)C(=O)OCCOCn1cnc2c(=O)nc(N)[nH]c21`, under setting [3], the “percent Bodipy-positive cells” value was 9.96 ± 4.7%.

Turning to `CC[C@H](NC(=O)[C@H](C)NC)C(=O)N1C[C@@H](O)C[C@H]1Cc1c(-c2[nH]c3cc(F)ccc3c2C[C@@H]2C[C@H](O)CN2C(=O)[C@H](CC)NC(=O)[C@H](C)NC)[nH]c2cc(F)ccc12` [Birinapant], the “percent Bodipy-positive cells” value is, setting by setting: under setting [2], 10.2 ± 0.39%; under setting [3], 61.3 ± 22%.

With `CC(C)N(CC[C@H](c1ccccc1)c1cc(CO)ccc1O)C(C)C`, the “percent Bodipy-positive cells” value was found to be 12.2 ± 3.5% under setting [2] and 27.6 ± 7% under setting [3].

As for `Cn1cc(C(F)(F)F)nc1-c1ccc(OCC(O)CNCCOc2ccc(O)c(C(N)=O)c2)cc1` (stereo not given), under setting [3], the “percent Bodipy-positive cells” value turned out to be 79.86 ± 0.19%.
